According to the supplement of paper PMC12823440, “Inhibitors supercharge kinase turnover through native proteolytic circuits” (Nature, 2025):
Counter-ions that a name gives are not always drawn. This is one part of the list. Hit calls seldom repeat between salt and free forms of one compound.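 In K562 cells expressing nanoluciferase-fused kinases, luminescence was recorded at 4 h intervals between 2 and 18 h, normalized as percent of control with DMSO at 100% and a positive control at 0%. A significant (2 sigma) signal drop marks a time point as decreased. The authors' rule for a hit is not shown and takes in more than the number of time points.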

Chains of the proteins cited; added tags and fusions are not shown. Lines headed by an entry give the natural chain unless they say otherwise; changes in a name come on top.
UniProt P07947, whole entry, looked up: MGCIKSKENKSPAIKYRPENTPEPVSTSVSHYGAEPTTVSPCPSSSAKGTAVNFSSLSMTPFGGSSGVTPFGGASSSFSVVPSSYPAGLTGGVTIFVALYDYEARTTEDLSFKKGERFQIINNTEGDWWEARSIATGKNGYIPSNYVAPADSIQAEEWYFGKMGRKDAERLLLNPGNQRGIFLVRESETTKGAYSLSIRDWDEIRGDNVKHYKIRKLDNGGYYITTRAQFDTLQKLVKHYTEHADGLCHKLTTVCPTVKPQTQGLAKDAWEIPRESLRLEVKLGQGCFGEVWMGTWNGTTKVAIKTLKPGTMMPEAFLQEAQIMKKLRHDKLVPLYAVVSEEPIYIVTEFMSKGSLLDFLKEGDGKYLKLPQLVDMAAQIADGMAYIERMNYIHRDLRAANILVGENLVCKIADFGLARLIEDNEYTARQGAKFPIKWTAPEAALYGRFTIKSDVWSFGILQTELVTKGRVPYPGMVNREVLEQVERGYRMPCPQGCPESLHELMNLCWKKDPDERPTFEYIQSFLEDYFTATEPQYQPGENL
UniProt P43403: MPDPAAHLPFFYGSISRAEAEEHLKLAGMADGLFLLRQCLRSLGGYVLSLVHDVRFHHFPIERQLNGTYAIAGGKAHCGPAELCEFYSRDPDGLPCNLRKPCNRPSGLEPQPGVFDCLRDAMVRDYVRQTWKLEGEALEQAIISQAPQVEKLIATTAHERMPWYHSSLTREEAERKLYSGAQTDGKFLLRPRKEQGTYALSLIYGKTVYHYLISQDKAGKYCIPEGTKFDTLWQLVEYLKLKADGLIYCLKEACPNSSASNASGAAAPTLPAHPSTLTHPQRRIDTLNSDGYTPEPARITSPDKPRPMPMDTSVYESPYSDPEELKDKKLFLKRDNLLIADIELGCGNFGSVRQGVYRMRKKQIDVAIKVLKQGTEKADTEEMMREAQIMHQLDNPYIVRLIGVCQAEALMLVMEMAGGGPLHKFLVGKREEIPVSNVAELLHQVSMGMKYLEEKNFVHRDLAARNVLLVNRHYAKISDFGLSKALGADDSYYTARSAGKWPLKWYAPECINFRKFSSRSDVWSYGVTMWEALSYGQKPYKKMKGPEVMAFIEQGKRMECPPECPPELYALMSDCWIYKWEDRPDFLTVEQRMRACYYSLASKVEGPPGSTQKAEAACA
UniProt P11802: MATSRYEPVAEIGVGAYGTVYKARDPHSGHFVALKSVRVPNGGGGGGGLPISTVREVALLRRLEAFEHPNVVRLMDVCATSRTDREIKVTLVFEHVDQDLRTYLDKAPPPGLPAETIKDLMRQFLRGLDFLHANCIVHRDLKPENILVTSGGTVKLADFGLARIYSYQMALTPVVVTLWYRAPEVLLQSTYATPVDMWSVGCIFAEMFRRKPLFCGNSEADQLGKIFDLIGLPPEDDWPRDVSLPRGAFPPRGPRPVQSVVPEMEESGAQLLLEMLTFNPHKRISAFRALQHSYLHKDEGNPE
UniProt P50613: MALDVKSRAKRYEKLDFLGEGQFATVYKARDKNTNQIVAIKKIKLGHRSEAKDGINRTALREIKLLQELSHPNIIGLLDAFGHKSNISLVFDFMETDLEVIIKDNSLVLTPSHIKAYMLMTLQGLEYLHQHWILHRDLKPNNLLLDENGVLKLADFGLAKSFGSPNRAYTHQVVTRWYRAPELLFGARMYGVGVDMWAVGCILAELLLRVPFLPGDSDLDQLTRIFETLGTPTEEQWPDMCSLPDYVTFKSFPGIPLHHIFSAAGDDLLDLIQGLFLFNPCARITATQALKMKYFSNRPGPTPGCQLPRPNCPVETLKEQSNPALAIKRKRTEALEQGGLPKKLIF
UniProt P50750, whole entry: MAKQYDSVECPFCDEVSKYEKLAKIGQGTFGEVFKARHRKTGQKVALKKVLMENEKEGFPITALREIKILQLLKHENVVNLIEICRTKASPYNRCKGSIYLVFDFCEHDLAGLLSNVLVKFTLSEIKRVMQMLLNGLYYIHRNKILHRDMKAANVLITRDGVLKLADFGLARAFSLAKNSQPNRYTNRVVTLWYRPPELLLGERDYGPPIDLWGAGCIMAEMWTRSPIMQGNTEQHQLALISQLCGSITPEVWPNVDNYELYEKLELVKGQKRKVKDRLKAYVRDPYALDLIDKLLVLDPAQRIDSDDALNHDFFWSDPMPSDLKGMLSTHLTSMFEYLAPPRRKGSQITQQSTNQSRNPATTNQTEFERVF

What was measured:
Conditions in all cases: K562; 2-18 h
[1] = biological target: YES1 (UniProt P07947); test: number of time points (of 5) at which kinase-Nluc abundance scored as decreased, DMSO-normalised (count); higher = more persistent destabilization
[2] = biological target: ZAK (UniProt Q9NYL2); test: as above
[3] = biological target: ZAP70 (UniProt P43403); test: as above
[4] = biological target: CDK4 (UniProt P11802); test: number of time points (of 4; 2 h point missing) at which kinase-Nluc abundance scored as decreased, DMSO-normalised (count); higher = more persistent destabilization
[5] = biological target: CDK7 (UniProt P50613); test: as above
[6] = biological target: CDK9 (UniProt P50750); test: as above

| SMILES | number of time points [1] | number of time points [2] | number of time points [3] | number of time points [4] | number of time points [5] | number of time points [6] |
| --- | --- | --- | --- | --- | --- | --- |
| O=c1cc(N2CCOCC2)oc2c(-c3ccccc3)cccc12 (10 µM) | 0 | 0 | 0 | 0 | 0 | 0 |
| COc1cc(C(=O)NC2CCN(C)CC2)ccc1Nc1ncc2c(n1)N(C1CCCC1)CC(F)(F)C(=O)N2C (10 µM) | 0 | 0 | 0 | 0 | 0 | 0 |
| CC(C)n1cnc2c(NCc3cccc(C(F)(F)F)c3)ncnc21 [Longdaysin] (10 µM) | 0 | 0 | 0 | 0 | 0 | 0 |
| COc1cc(C)c(Sc2cnc(NC(=O)c3ccc(CNC(C)C(C)(C)C)cc3)s2)cc1C(=O)N1CCN(C(C)=O)CC1 (configuration not stated) (2.5 µM) | 0 | 0 | 0 | 0 | 0 | 0 |
| COCCNCCc1cccc(Nc2ncc3c(n2)-c2ccccc2[C@H](c2ccccc2F)C3)c1 [Derazantinib] (2.5 µM) | 0 | 0 | 0 | 0 | 0 | 0 |
| COc1c(CC=C(C)C)c(O)cc2oc(=O)c(-c3ccc(O)cc3O)cc12 [Glycycoumarin] (10 µM) | 0 | 0 | 0 | 0 | 0 | 0 |
| COc1cc(Oc2ccnc3cc(OC)c(OC)cc23)ccc1NC(=O)NC(C)c1nccs1 (configuration not stated) (2.5 µM) | 0 | 0 | 0 | 0 | 0 | 0 |
| C/C=C(/C)C(=O)O[C@H]1Cc2cc3ccc(=O)oc3cc2OC1(C)C [Decursinol angelate] (10 µM) | 0 | 0 | 0 | 0 | 0 | 0 |
| C[C@]1(O)C[C@@H](c2nc(-c3ccc4ccc(-c5ccccc5)nc4c3)c3c(N)nccn32)C1 [Linsitinib] (2.5 µM) | 0 | 0 | 0 | 0 | 0 | 0 |
| O=C(NOC[C@H](O)CO)c1ccc(F)c(F)c1Nc1ccc(I)cc1F (2.5 µM) | 0 | 0 | 0 | 0 | 0 | 0 |
| Cc1cccc([C@@H](CO)NC(=O)[C@@H](C)N2Cc3ccc(-c4nc(NC5CCOCC5)ncc4Cl)cc3C2=O)c1 [ERK1/2 inhibitor 1] (10 µM) | 0 | 0 | 0 | 0 | 0 | 0 |
| FC(F)(F)c1ccc(CNc2ccc(Cc3c[nH]c4ncc(Cl)cc34)cn2)cc1 (10 µM) | 0 | 0 | 0 | 0 | 0 | 0 |
| c1cc(OCCN2CCCCC2)cc(-c2n[nH]c3ccc(-c4nnc[nH]4)cc23)c1 [CC-401 (hydrochloride)] (10 µM) | 0 | 0 | 0 | 0 | 0 | 0 |
| CN1CCN(c2ccc(C(=O)Nc3n[nH]c4ccc(Cc5cc(F)cc(F)c5)cc34)c(NC3CCOCC3)c2)CC1 [Entrectinib] (2.5 µM) | 0 | 0 | 0 | 0 | 0 | 0 |
| CN1CCN(C(=O)c2ccc(-c3ccc4c(C=O)c(O)ccc4c3)s2)CC1 (2.5 µM) | 0 | 0 | 0 | 0 | 0 | 0 |
| CC(C)CC(=O)Nc1n[nH]c2c1CN(C(=O)C1CCN(C)CC1)C2(C)C (2.5 µM) | 0 | 0 | 0 | 0 | 0 | 2 |
| COc1ccc2c(C(=O)Nc3ccc(NC(=O)c4nn(C5CCN(C(=O)CC(C)(C)C#N)CC5)c5ccc(F)cc45)cc3Cl)cnn2c1 [Src Inhibitor 3] (2.5 µM) | 3 | 1 | 0 | 0 | 3 | 1 |
| COc1cc(OC)cc(-c2cc3cnc(N)nc3nc2NC(=O)NC(C)(C)C)c1 (10 µM) | 0 | 0 | 0 | 0 | 0 | 0 |
| O=C1Cc2c([nH]c3ccc(Br)cc23)-c2ncccc2N1 [1-Azakenpaullone] (10 µM) | 0 | 0 | 0 | 0 | 0 | 0 |
| COc1cc(N2CCC(N)CC2)ccc1Nc1ncc(Cl)c(-c2c[nH]c3ccccc23)n1 (2.5 µM) | 0 | 0 | 0 | 0 | 0 | 0 |
| CC(C)(/C=C(\C#N)C(=O)N1CCC[C@@H](n2nc(-c3ccc(Oc4ccccc4)cc3F)c3c(N)ncnc32)C1)N1CCN(C2COC2)CC1 (2.5 µM) | 0 | 0 | 0 | 0 | 0 | 0 |
| O=C(/C=C/c1ccc(O)c(O)c1)c1ccc(O)cc1O [Butein] (10 µM) | 3 | 0 | 0 | 0 | 1 | 0 |
| COc1cc(F)cc([C@@H](CO)NC(=O)[C@@H](C)N2Cc3ccc(-c4nc(NC5CCOCC5)ncc4Cl)cc3C2=O)c1 [ERK1/2 inhibitor 2] (10 µM) | 0 | 0 | 0 | 0 | 0 | 0 |
| CCCCOc1c(C(=O)c2c(F)cc(C)cc2F)c[nH]c2nncc1-2 (10 µM) | 0 | 0 | 0 | 0 | 0 | 0 |

| SMILES | number of time points [1] | number of time points [2] | number of time points [3] | number of time points [4] | number of time points [5] | number of time points [6] |
| --- | --- | --- | --- | --- | --- | --- |
| COc1nccc(-c2c(-c3ccc(F)cc3)ncn2C2CCC(O)CC2)n1 (configuration not stated) (10 µM) | 0 | 0 | 0 | 0 | 0 | 0 |
| CN(C)Cc1ccc(-c2cnn3c(-c4cccc(NC(=O)c5cccc(C(F)(F)F)c5)c4)ccnc23)cc1 (2.5 µM) | 0 | 0 | 0 | 0 | 0 | 0 |
| N#CC(=Cc1ccc(O)c(O)c1)C(=O)NCc1ccccc1 (mixture of isomers) (10 µM) | 0 | 0 | 0 | 0 | 0 | 0 |
| CCOc1cc2ncc(-c3cc(N)nc(F)c3)n2cc1S(=O)(=O)C(C)(C)C (10 µM) | 0 | 0 | 0 | 0 | 0 | 0 |
| COc1ccc(C=C(C#N)c2cccnc2)cc1OC (10 µM) | 0 | 0 | 0 | 0 | 0 | 0 |
| N#Cc1ccc2[nH]c(O)c(-c3ccc(CN4CCOCC4)cn3)c2c1 (10 µM) | 0 | 0 | 0 | 0 | 0 | 0 |
| CCc1nc(-c2cccc(C)c2)c(-c2ccnc(NC(=O)c3ccccc3)c2)s1 (10 µM) | 0 | 0 | 0 | 0 | 0 | 0 |
| C=CC(=O)N1C[C@H](Nc2ncnc3[nH]ccc23)CC[C@@H]1C [Ritlecitinib] (10 µM) | 0 | 0 | 0 | 0 | 0 | 0 |
| C[C@H](CN(C)C)Oc1nc(Nc2cc3cccc(Cl)c3cn2)cnc1C#N (10 µM) | 0 | 0 | 0 | 0 | 1 | 0 |
| O=C([O-])c1ccccc1O.[Na+] [Sodium Salicylate] (10 µM) | 0 | 0 | 0 | 0 | 0 | 0 |
| CC[C@H](CO)Nc1nc(NCc2ccccc2)c2ncn(C(C)C)c2n1 [Seliciclib] (10 µM) | 0 | 0 | 0 | 0 | 0 | 0 |
| COc1cc2ncn(-c3cc(OCc4ccccc4C(F)(F)F)c(C(N)=O)s3)c2cc1OC (10 µM) | 0 | 0 | 0 | 0 | 2 | 1 |
| CC(C)(C#N)c1ccc(N2C(=O)OCc3cnc4ccc(-c5cnc6ccccc6c5)cc4c32)cc1 (2.5 µM) | 0 | 0 | 0 | 0 | 0 | 0 |
| CCOc1cc2ncc(C#N)c(Nc3ccc(OCc4ccccn4)c(Cl)c3)c2cc1NC(=O)/C=C/CN(C)C [Neratinib] (10 µM) | 0 | 0 | 0 | 0 | 0 | 0 |
| COc1cc(CCc2cc(-c3nc4ccc(N5CCN(C)CC5)cc4[nH]3)n[nH]2)cc(OC)c1 (10 µM) | 1 | 1 | 0 | 0 | 1 | 0 |
| CNC(=O)c1ccccc1Nc1nc(Nc2ccc(N3CCOCC3)cc2OC)ncc1Cl (2.5 µM) | 0 | 0 | 0 | 0 | 0 | 0 |
| CCOc1ccn(-c2ccc(F)cc2)c(=O)c1C(=O)Nc1ccc(Oc2ccnc(N)c2Cl)c(F)c1 (10 µM) | 1 | 1 | 0 | 0 | 4 | 2 |
| COc1c(Cl)cc2c([nH]c3cnccc32)c1NC(=O)c1cccnc1C (10 µM) | 0 | 0 | 0 | 0 | 0 | 0 |
| CC(C)c1ccc2oc3nc(N)c(C(=O)O)cc3c(=O)c2c1 [Amlexanox] (10 µM) | 0 | 0 | 0 | 0 | 0 | 0 |
| CNC(=O)c1cccc(-c2ccc3c(N4CCOC[C@@H]4C)nc(N4CCOC[C@@H]4C)nc3n2)c1 [Vistusertib] (2.5 µM) | 1 | 1 | 0 | 2 | 4 | 4 |
| Cc1[nH]c(/C=C2\C(=O)Nc3ccc(S(=O)(=O)Cc4c(Cl)cccc4Cl)cc32)c(C)c1C(=O)N1CCC[C@@H]1CN1CCCC1 (2.5 µM) | 0 | 0 | 0 | 0 | 0 | 0 |
| O=C(Nc1cc(C(F)(F)F)ccc1N1CCN(Cc2ccccn2)CC1)c1ccc(-c2ccncc2)o1 (10 µM) | 0 | 0 | 0 | 0 | 0 | 1 |
| CCN1CCN(c2ccc(Nc3cc(N(C)C(=O)Nc4c(Cl)c(OC)cc(OC)c4Cl)ncn3)cc2)CC1 [Infigratinib] (10 µM) | 0 | 0 | 0 | 0 | 0 | 0 |
